The results in this text go back to paper PMC5461112, “Structure analyses reveal a regulated oligomerization mechanism of the PlexinD1/GIPC/myosin VI complex” (eLife, 2017).

These are yes or no findings as the source states them, for the method shown. Binding calls can cover weak binding; strength is not graded here.

The target in assay [1] is mouse GIPC3 GH1-PDZ-GH2 (residues 20-307) (mouse). Put plainly: pull-down; three proteins mixed: GST-HCBD, a GIPC and PlexinD1cyto (with JM), each 1 μM; glutathione beads; 10 mM Tris pH 8.0, 150 mM NaCl, 1 mM DTT; room temperature; Coomassie-stained SDS-PAGE; both purified.
For assay [2], the target named is myosin VI-HCBD(1052-1094), crystallised form (mouse). Put plainly: crystal structure; GIPC2-GH2(238-314) and myosin VI-HCBD(1052-1094) mixed equimolar, 15 mg/ml; 0.1 M MES pH 6.5, 10% (w/v) PEG20000; 20°C; both purified.

B1: mouse PlexinD1 cytoplasmic region with the JM-segment (residues 1297-1925) (domain or fragment, UniProt Q3UH93 1297-1925)
chain: SRRAERYWQKTLLQMEEMESQIREEIRKGFAELQTDMTDLTKELNRSQGIPFLEYKHFVTRTFFPKCSSLYEERYVLPSKTLNSQGGSPPQETHPLLGEWNIPEHCRPSMEEGISLFSSLLNNKHFLIVFVHALEQQKDFAVRDRCSLASLLTIALHGKLEYYTSIMKELLVDLIDASAAKNPKLMLRRTESVVEKMLTNWMSICMYGCLRETVGEPFFLLLCAIKQQINKGSIDAITGKARYTLNEEWLLRENIEAKPRNLNVSFQGCGMDSLSVRAMDTDTLTQVKEKILEAFCKNVPYSQWPRAEDVDLEWFASSTQSYVLRDLDDTSVVEDGRKKLNTLAHYKIPEGASLAMSLTDKKDSTLGRVKDLDTEKYFHLVLPTDELVEPKKSHRQSHRKKVLPEIYLTRLLSTKGTLQKFLDDLFKAILSIREDKPPLAVKYFFDFLEEQAEKRGISDPDTLHIWKTNSLPLRFWVNILKNPQFVFDIEKTDHIDACLSVIAQAFIDACSISDLQLGKDSPTNKLLYAKEIPEYRKTVQRYYKQIQDMTPLSEQEMNAHLAEESRKYQNEFNTNVAMAEIYKYAKRYRPQIMAALEANPTARRTQLQHKFEQVVALMENNIYECYSEA
B1: the binding entry in assay [1] is listed as “binds”.

B2: mouse GIPC2 GH2 domain (residues 238-314) (domain or fragment, UniProt Q9Z2H7 238-314)
chain: LPSEAKAKAIGKVDDLLELYMGIRDIDLATTMFEAGKDKSNPDEFAVALDETLGDFAFPDEFLFDVWGAISDMKQGR
In the case of B2, the binding result in assay [2] is on record as “binds”.
